Data source: PubChem BioAssay AID1159584 (Peter MacCallum Cancer Centre, 2016)

Test: 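Knock-downs that harm CDH1-null cells more than parental MCF10A cells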 (primary screen)
System: human MCF10A breast epithelial cells, parental and CDH1-null
Reagents: siRNA against human genes
Read-out: 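ATP luminescence (CellTiter-Glo) viability per line relative to mean mock wells over all plates, and the ratio of CDH1-null to parental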
Reading the numbers: CDH1-null / parental viability ratio: higher = CDH1-null cells survive relatively better than parental; CDH1-null viability vs mock: higher = more viable CDH1-null cells
In all, the deposit lists about 18,000 reagents; below is a random part of them. Further read-outs or replicates are left out here. The record does not give: the amount of reagent, the time to read-out.

gene	CDH1-null / parental viability ratio	CDH1-null viability vs mock (fraction of mock)
GUCY2F	0.8	0.78
DCAF12	1.12	0.9
GLIS3	1	0.57
PLD5	0.99	0.76
C8orf34	0.84	0.9
CETN2	1.34	1.11
COL1A1	1	0.94
KRT39	1.01	0.79
CBL	1.02	0.96
ABLIM1	0.91	0.6
FEM1A	1.21	1.04
ABCC12	0.86	0.86
MT1F	1.16	0.86
PLOD2	0.83	0.76
HELT	0.92	0.74
OGDH	0.9	0.61
ERO1B	1.11	0.97
TREX1	0.95	0.7
MTREX	1.26	0.48
BAIAP3	1.19	0.7
EXOC8	0.82	0.64

Part of the list above in another layout.
gene,CDH1-null / parental viability ratio,CDH1-null viability vs mock (fraction of mock)
ABLIM1,0.91,0.6
FEM1A,1.21,1.04
ABCC12,0.86,0.86
MT1F,1.16,0.86
PLOD2,0.83,0.76
HELT,0.92,0.74

Continued:
gene	CDH1-null / parental viability ratio	CDH1-null viability vs mock (fraction of mock)
RAP2B	1.07	1.08
TNFRSF11B	0.89	0.82
FOXF1	0.95	0.75
INSM1	0.95	0.54
DCAF8	1.03	1.02
HBB	1.04	0.82
SLC44A4	0.85	0.74
HSD17B12	1.05	1.1
RIC1	1.09	0.83
SPMAP1	1.65	0.86
AZIN1	1.26	1.06
UBE2D4	1.16	0.85
RASSF3	1	0.8
OVOL1	0.91	0.7
ARHGEF35	2	0.62
RAB20	1.08	1.17
CHST6	1.07	1.16
FUT3	1.28	1.15
NRP1	1.05	0.96
TPH1	0.92	0.87
ZNF629	1.09	1
TXNDC12	0.95	0.7
PROCR	0.8	0.61
PCDH7	1.11	0.84
LTF	1.31	0.92
